Source: paper doi:10.1101/2023.08.01.549180
Results are given in words; binding and its absence hold for the method and conditions named. Some binding calls cover weakened binding; strength is not graded here.

Amino acid sequences for entries named in this document (tags omitted).
UniProt P08413, whole entry: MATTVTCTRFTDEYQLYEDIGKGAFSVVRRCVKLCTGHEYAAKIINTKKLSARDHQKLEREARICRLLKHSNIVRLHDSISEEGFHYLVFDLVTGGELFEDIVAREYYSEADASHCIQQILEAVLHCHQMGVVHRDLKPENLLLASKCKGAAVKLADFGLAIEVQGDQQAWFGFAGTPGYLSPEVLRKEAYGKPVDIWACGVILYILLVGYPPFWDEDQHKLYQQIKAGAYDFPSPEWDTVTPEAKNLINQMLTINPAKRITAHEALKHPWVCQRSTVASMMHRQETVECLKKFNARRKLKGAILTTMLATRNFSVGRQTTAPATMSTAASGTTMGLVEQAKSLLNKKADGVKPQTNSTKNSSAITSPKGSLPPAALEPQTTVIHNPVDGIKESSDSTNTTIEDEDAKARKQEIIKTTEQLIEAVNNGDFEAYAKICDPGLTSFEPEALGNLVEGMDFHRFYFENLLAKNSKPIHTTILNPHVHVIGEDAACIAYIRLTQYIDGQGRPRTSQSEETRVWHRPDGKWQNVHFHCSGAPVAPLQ

Biological target: Green Camuiβ (UniProt P08413)
Test: SEC

binding: binds
Substance: Green Camuiβ (from UniProt P08413 1-542)
